Consider one substance from PMC5575334.

By UniProt entry, the sequences of proteins in these tests, tags left out. Where a name states a change or a piece, a line headed by the entry shows the natural chain unless it says otherwise. Chains listed by the source or under a name are the forms on record and can include a tag or linker.
UniProt P60953: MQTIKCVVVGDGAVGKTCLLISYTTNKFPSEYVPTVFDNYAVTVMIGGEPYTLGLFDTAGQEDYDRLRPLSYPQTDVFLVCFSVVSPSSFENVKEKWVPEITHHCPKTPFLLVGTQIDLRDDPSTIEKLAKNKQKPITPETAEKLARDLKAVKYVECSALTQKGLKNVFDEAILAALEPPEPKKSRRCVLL
EGFP-tagged Cdc42-L61 (P60953, form named): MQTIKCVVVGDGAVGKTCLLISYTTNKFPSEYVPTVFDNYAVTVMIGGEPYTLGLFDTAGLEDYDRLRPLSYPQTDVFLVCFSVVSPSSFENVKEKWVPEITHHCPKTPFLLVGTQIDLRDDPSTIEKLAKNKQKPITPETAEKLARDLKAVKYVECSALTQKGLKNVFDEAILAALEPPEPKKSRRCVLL
UniProt A2APV2: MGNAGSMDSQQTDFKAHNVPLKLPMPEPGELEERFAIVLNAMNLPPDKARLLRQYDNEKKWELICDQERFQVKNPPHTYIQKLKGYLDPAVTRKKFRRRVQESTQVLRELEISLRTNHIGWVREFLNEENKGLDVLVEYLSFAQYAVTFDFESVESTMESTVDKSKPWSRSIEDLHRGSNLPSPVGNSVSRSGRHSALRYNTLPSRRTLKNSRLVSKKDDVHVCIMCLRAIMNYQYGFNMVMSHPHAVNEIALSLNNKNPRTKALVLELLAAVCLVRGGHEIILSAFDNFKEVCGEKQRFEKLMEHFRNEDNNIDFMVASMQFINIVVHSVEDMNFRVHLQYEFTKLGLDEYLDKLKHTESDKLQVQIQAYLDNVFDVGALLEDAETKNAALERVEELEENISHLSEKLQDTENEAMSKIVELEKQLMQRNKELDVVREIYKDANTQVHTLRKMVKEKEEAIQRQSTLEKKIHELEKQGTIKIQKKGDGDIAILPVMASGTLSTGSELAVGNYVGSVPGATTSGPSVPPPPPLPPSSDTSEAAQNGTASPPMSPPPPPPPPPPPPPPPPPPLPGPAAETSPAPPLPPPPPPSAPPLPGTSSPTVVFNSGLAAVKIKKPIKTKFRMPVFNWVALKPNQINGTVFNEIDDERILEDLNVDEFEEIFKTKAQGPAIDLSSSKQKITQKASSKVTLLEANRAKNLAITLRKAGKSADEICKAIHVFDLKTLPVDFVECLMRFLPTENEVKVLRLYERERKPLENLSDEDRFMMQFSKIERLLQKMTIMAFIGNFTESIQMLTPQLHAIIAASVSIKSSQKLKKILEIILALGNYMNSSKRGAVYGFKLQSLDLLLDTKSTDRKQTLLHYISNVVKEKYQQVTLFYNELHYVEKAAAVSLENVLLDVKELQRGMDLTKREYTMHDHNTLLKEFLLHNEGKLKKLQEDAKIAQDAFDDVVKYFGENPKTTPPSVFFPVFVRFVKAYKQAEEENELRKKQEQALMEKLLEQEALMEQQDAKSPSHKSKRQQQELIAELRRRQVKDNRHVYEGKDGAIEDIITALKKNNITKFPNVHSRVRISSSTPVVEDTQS

The target in this test is EGFP-tagged Cdc42-L61 (UniProt P60953). Nature of the test: co-IP; GFP-Trap_A beads precipitate EGFP-tagged baits from lysates of transfected B16-F1 cells; IP-buffer (140 mM KCl, 50 mM Tris-HCl pH 7.4, 50 mM NaF, 10 mM Na4P2O7, 2 mM MgCl2, 1% Triton-X100), 1 h at 4 °C; endogenous proteins detected by Western blot.

Results are given in words; binding and its absence hold for the method and conditions named. In cells and extracts the contact can be indirect. Some binding calls cover weakened binding; strength is not graded here.

For “endogenous FMNL2 (from UniProt A2APV2 1-1086)”, the binding entry was “binds”.
